No constants are given. Whether binding was seen depends on the method and setting. Binding seen in cells or lysates may run through a third protein. Some binding calls cover weakened binding; strength is not graded here.
Target: T1, δ-catenin (catenin delta 1) (human (endogenous in human gastric cancer cell lines)) (UniProt O60716)
T1 sequence: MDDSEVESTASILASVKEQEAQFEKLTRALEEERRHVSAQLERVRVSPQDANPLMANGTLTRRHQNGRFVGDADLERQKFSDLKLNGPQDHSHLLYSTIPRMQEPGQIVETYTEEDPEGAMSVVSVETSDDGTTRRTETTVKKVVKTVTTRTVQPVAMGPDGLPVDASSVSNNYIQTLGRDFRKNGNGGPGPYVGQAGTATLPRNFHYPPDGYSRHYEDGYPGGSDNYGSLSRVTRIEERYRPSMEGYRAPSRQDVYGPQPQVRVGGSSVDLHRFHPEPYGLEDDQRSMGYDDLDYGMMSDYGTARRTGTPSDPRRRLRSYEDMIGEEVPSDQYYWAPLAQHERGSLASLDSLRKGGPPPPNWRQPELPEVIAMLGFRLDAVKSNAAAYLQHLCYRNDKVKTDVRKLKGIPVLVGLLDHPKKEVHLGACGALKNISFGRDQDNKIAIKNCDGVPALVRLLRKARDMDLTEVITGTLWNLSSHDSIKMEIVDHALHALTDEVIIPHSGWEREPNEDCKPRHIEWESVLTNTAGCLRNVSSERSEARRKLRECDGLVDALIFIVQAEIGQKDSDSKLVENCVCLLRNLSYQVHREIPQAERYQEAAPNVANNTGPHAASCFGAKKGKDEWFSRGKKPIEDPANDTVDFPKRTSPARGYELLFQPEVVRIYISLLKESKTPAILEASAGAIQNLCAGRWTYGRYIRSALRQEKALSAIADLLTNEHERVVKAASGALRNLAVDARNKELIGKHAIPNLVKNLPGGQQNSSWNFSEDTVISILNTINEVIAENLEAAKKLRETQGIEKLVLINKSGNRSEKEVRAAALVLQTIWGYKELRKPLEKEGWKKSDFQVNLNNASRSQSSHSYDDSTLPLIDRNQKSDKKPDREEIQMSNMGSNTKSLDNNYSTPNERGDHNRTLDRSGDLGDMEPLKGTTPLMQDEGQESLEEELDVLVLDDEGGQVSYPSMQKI
Assay: co-IP; GC cells lysed in Pierce immunoprecipitation lysis buffer with proteinase, phosphatase and RNase inhibitors; beads at 4 °C overnight, washed three times, western blot; done in GC cells alone and in GC cells transfected with circEIF4G3 overexpressing plasmid (association enhanced)

Amino acid sequences for entries named in this document (tags omitted).
UniProt Q14258: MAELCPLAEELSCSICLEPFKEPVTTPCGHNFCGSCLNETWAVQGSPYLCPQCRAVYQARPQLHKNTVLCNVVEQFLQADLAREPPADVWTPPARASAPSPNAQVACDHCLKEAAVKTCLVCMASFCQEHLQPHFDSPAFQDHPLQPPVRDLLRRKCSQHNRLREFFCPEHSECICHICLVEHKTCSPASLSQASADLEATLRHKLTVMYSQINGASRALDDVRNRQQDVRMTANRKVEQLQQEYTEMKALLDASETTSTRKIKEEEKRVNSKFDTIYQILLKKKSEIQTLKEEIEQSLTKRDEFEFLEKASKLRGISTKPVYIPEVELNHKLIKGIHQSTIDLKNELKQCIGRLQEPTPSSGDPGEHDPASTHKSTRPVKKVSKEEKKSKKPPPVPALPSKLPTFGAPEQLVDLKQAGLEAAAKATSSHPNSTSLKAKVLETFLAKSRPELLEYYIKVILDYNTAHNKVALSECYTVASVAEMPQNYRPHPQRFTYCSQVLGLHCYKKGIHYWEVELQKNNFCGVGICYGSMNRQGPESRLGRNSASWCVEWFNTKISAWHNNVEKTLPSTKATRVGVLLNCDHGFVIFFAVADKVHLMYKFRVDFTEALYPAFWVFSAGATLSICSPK

With “TRIM25 (Tripartite motif 25) (from UniProt Q14258 1-630)” the binding was “binds”.
